The other results are listed elsewhere or left out. The calls rarely recur for the same compound in another form.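 In K562 cells expressing nanoluciferase-fused kinases, luminescence was recorded at 4 h intervals between 2 and 18 h, normalized as percent of control with DMSO at 100% and a positive control at 0%. A significant (2 sigma) signal drop marks a time point as decreased. The authors' rule for a hit is not shown and takes in more than the number of time points.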
Assays:
Assay in all cases: kinase-Nluc reporter destabilization hit call (1 = scored as downregulated) (binary); higher = compound decreases kinase abundance
Settings in all cases: K562; 2-18 h
RET = RET (UniProt P07949)
[1] = target: RET_M918T (clone: RET_mut) (UniProt P07949)
RIOK1 = RIOK1 (UniProt Q9BRS2)
RIPK1 = RIPK1 (UniProt Q13546)
RIPK2 = RIPK2 (UniProt O43353)
ROR2 = ROR2 (UniProt Q01974)
RPS6KA1 = RPS6KA1 (UniProt Q15418)
SPHK1 = SPHK1 (UniProt Q9NYA1)
SRC = SRC (UniProt P12931)
STK24 = STK24 (UniProt Q9Y6E0)

Sequences of proteins named here, by UniProt entry; tags and fusion partners are left off. A change or cut given only in a name is not applied to a line headed by its entry.
UniProt P07949, whole entry, looked up: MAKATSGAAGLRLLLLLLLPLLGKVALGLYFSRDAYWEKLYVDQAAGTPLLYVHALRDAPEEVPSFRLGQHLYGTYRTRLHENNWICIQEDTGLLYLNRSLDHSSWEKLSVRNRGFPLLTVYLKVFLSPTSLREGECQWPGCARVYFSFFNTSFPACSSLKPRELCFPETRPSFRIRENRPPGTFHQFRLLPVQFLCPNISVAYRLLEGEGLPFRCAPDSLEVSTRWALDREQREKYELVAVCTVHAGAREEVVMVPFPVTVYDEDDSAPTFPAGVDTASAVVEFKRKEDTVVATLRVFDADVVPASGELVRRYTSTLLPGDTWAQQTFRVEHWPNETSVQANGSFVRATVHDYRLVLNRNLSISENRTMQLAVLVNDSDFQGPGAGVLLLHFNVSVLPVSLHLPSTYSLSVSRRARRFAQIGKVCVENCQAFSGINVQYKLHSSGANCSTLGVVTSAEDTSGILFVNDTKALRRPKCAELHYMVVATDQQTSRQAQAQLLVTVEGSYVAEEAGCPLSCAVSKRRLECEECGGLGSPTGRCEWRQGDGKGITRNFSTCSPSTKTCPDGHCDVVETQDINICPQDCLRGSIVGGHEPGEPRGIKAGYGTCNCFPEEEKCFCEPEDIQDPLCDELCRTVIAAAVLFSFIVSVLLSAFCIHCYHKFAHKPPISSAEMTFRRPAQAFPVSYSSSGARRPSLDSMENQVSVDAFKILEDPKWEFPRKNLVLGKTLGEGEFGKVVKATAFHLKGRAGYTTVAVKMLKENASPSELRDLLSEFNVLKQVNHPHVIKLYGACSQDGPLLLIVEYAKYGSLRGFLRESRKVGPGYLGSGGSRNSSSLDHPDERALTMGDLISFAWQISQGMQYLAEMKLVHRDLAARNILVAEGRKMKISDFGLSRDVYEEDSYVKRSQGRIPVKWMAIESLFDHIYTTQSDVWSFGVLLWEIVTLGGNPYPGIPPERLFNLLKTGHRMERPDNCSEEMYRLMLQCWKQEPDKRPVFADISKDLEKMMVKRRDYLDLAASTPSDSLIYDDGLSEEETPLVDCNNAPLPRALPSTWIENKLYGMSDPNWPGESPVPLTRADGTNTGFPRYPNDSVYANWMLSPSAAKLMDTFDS
UniProt P07949, whole entry M918T, looked up: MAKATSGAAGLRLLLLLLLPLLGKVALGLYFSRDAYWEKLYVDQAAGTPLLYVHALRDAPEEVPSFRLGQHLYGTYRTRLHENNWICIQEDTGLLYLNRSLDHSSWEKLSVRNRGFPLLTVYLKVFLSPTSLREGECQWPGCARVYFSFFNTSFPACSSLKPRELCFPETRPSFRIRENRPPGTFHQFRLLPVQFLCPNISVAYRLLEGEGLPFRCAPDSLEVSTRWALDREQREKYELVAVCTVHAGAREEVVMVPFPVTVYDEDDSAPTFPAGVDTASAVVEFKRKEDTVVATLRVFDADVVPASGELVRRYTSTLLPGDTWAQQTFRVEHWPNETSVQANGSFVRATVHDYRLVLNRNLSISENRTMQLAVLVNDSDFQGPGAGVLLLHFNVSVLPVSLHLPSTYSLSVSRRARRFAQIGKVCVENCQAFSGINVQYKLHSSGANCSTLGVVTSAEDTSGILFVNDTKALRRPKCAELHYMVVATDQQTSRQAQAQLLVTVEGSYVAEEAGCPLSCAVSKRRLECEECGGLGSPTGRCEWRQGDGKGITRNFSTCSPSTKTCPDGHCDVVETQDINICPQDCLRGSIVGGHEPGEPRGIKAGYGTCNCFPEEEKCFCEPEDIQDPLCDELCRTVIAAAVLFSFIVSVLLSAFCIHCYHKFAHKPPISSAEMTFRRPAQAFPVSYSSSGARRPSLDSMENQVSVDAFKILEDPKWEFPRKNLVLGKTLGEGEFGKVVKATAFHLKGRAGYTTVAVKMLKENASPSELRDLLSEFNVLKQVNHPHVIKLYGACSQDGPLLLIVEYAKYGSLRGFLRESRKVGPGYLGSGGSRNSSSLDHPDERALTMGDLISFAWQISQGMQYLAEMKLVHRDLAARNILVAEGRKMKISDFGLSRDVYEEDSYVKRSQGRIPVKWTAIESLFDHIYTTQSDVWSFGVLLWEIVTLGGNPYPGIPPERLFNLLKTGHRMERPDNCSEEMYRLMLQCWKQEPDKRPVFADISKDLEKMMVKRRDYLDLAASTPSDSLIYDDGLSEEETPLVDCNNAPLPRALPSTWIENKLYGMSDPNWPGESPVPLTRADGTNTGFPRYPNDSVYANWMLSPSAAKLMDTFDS
UniProt Q9BRS2: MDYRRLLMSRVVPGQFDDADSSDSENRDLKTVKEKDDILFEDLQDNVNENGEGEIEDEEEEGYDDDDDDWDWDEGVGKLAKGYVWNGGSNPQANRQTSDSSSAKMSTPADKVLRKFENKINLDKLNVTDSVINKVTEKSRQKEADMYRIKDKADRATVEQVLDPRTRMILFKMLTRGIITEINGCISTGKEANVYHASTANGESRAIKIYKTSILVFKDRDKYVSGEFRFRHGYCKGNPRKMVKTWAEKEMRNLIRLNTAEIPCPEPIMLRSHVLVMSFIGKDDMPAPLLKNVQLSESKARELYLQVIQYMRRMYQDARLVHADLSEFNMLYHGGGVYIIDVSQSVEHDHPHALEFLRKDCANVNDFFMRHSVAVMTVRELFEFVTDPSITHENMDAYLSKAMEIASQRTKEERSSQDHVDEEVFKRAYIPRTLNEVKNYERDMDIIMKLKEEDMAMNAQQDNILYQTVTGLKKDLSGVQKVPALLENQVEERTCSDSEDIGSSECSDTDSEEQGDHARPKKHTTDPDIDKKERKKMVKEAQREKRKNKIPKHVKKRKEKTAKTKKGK
UniProt Q13546: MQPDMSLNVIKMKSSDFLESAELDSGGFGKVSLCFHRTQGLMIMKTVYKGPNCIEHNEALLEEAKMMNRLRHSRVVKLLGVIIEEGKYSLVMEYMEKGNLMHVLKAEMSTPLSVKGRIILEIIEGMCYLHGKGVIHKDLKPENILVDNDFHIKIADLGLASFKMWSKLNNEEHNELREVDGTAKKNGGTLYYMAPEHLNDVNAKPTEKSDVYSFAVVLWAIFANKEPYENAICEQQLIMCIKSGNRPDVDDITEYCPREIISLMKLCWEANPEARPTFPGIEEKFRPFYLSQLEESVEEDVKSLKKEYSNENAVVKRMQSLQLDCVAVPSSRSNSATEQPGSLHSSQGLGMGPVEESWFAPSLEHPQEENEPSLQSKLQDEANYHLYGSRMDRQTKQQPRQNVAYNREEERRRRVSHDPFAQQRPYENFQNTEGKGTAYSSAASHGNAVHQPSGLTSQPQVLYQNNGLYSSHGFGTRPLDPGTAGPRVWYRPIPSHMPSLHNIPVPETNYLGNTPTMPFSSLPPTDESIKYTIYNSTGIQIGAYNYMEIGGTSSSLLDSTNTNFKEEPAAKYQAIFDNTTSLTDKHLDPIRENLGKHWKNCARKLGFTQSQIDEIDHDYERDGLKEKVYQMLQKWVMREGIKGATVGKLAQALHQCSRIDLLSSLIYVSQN
UniProt Q01974, whole entry: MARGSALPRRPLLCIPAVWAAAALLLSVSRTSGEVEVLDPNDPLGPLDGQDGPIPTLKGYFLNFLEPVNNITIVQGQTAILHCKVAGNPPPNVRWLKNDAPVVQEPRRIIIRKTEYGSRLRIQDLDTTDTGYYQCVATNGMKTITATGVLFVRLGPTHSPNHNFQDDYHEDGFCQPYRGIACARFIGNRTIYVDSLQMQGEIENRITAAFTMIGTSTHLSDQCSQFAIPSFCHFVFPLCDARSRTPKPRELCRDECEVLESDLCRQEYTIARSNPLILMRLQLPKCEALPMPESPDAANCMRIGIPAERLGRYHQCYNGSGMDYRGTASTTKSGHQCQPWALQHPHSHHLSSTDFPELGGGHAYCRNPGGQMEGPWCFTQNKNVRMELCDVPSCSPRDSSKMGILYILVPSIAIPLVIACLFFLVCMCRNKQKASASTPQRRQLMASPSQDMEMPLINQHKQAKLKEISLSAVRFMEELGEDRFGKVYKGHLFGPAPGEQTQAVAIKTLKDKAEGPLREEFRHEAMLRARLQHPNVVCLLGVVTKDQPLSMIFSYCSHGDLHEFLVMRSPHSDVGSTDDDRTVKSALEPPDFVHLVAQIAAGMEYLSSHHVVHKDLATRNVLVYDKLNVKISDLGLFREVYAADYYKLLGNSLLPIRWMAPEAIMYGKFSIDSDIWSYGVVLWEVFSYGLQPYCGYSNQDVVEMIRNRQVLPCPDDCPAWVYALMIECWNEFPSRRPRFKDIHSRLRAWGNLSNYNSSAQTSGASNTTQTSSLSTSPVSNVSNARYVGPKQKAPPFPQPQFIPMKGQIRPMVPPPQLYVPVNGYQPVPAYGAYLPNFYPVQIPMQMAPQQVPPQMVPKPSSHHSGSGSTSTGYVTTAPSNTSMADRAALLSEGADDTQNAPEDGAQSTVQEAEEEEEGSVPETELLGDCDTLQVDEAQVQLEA
UniProt Q15418, whole entry: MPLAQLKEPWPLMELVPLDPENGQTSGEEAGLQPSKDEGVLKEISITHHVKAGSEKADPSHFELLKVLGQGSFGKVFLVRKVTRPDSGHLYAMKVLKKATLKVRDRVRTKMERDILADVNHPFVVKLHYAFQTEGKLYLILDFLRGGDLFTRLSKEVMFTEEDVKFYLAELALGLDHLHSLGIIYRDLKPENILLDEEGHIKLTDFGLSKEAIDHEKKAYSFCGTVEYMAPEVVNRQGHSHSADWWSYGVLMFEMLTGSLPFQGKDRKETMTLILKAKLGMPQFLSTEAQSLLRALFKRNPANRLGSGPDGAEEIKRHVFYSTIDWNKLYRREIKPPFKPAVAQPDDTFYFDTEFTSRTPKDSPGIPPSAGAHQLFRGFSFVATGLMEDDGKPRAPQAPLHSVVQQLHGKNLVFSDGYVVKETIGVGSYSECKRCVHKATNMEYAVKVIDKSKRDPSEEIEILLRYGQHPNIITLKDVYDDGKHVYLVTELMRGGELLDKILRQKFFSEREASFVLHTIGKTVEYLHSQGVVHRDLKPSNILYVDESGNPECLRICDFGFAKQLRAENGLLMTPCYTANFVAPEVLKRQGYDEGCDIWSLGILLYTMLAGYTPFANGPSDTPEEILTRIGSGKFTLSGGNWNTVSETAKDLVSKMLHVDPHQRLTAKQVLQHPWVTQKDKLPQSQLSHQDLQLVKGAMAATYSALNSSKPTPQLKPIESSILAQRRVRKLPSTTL
UniProt Q9NYA1, whole entry: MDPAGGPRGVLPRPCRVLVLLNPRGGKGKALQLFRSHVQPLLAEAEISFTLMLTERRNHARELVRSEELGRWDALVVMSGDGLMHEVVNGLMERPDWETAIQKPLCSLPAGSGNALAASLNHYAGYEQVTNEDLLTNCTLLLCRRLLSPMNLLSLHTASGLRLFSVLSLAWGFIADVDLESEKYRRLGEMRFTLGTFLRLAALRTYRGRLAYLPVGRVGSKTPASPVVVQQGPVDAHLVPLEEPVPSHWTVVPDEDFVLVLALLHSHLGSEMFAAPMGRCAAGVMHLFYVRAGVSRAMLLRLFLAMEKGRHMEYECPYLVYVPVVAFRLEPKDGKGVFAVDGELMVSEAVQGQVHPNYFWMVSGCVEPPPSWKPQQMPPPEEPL
UniProt Q9Y6E0: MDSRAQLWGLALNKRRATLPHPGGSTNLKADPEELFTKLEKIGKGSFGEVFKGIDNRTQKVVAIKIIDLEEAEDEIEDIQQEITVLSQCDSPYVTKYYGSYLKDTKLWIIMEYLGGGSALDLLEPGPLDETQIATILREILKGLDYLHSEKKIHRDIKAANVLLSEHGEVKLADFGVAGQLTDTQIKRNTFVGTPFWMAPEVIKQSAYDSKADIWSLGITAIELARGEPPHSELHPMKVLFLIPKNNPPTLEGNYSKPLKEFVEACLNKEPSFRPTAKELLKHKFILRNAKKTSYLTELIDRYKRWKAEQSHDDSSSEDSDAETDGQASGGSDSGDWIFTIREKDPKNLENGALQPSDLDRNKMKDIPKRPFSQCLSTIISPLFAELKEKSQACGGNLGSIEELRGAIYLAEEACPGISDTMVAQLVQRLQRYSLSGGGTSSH

Measured: kinase-Nluc reporter destabilization hit call

COc1cc(F)ccc1-c1ncnc(Nc2cccc(C[S@](C)(=N)=O)c2)n1 [Atuveciclib] (2.5 µM)
inactive: RET 0 | [1] 0 | RIOK1 = 0 | RIPK1 = 0 | RIPK2 = 0 | ROR2 = 0 | RPS6KA1 = 0 | SPHK1 = 0 | SRC 0 | STK24 = 0

NC(=O)c1cnc(-c2ccc(C3(N)CCC3)cc2)c(-c2ccccc2)c1 (10 µM)
inactive: RET 0 | [1] 0 | RIOK1 = 0 | RIPK1 = 0 | RIPK2 = 0 | ROR2 = 0 | RPS6KA1 = 0 | SPHK1 = 0 | SRC 0 | STK24 = 0

Oc1c(F)cc(-c2cnccc2-c2ccc(N3CCOCC3)cc2)cc1F (10 µM)
inactive: RET 0 | [1] 0 | RIOK1 = 0 | RIPK1 = 0 | RIPK2 = 0 | ROR2 = 0 | RPS6KA1 = 0 | SPHK1 = 0 | SRC 0 | STK24 = 0

Cn1c2cc([S+](C)[O-])sc2c2cnn(Cc3cccc(N)c3)c(=O)c21 (stereo not given) (2.5 µM)
inactive: RET 0 | [1] 0 | RIOK1 = 0 | RIPK1 = 0 | RIPK2 = 0 | ROR2 = 0 | RPS6KA1 = 0 | SPHK1 = 0 | SRC 0 | STK24 = 0

O=C(NCCN1CCOCC1)Nc1nc2ccc(Sc3nnc4ccc(-c5ccc(F)cc5)nn34)cc2s1 (10 µM)
inactive: RET 0 | [1] 0 | RIOK1 = 0 | RIPK1 = 0 | RIPK2 = 0 | ROR2 = 0 | RPS6KA1 = 0 | SPHK1 = 0 | SRC 0 | STK24 = 0

Cc1c(Cl)cccc1S(=O)(=O)Nc1nc(NCCc2ccccc2)nc2c1CN(Cc1ccccc1)CC2 (2.5 µM)
active: SPHK1 = 1
inactive: RET 0 | [1] 0 | RIOK1 = 0 | RIPK1 = 0 | RIPK2 = 0 | ROR2 = 0 | RPS6KA1 = 0 | SRC 0 | STK24 = 0

CNC(=O)c1ccc2c(C(=Nc3cccc(CN(C)C)c3)c3ccccc3)c(O)[nH]c2c1 [MEK inhibitor] (10 µM)
inactive: RET 0 | [1] 0 | RIOK1 = 0 | RIPK1 = 0 | RIPK2 = 0 | ROR2 = 0 | RPS6KA1 = 0 | SPHK1 = 0 | SRC 0 | STK24 = 0

N[C@@H]1CCCN(c2c(/C=C3\SC(=O)NC3=O)cccc2-c2ccccc2)C1 (10 µM)
inactive: RET 0 | [1] 0 | RIOK1 = 0 | RIPK1 = 0 | RIPK2 = 0 | ROR2 = 0 | RPS6KA1 = 0 | SPHK1 = 0 | SRC 0 | STK24 = 0

Cc1cc(CSc2ccccc2C(=O)NCCNc2ccc(C(F)(F)F)cc2[N+](=O)[O-])on1 (10 µM)
inactive: RET 0 | [1] 0 | RIOK1 = 0 | RIPK1 = 0 | RIPK2 = 0 | ROR2 = 0 | RPS6KA1 = 0 | SPHK1 = 0 | SRC 0 | STK24 = 0

Cn1cc(-c2cc(Oc3cc(F)c(NC(=O)C4(C(=O)Nc5ccccc5)CC4)cc3F)ccn2)cn1 (2.5 µM)
inactive: RET 0 | [1] 0 | RIOK1 = 0 | RIPK1 = 0 | RIPK2 = 0 | ROR2 = 0 | RPS6KA1 = 0 | SPHK1 = 0 | SRC 0 | STK24 = 0

CCc1c[nH]c2ncnc(N3CC[C@](N)(CNC(=O)c4ccc(F)cc4F)C3)c12 (10 µM)
inactive: RET 0 | [1] 0 | RIOK1 = 0 | RIPK1 = 0 | RIPK2 = 0 | ROR2 = 0 | RPS6KA1 = 0 | SPHK1 = 0 | SRC 0 | STK24 = 0

Cc1cc(C(=O)NC(C)(C)C)cc(C#Cc2ccc3c4c(oc3c2)C(C)(C)c2cc(NS(C)(=O)=O)ccc2C4=O)n1 (10 µM)
inactive: RET 0 | [1] 0 | RIOK1 = 0 | RIPK1 = 0 | RIPK2 = 0 | ROR2 = 0 | RPS6KA1 = 0 | SPHK1 = 0 | SRC 0 | STK24 = 0

Cc1c(C)c(NCC(=O)N(C)C2CCN(Cc3ccc(C(N)=O)cc3)CC2)c(C)c(C)c1N (10 µM)
inactive: RET 0 | [1] 0 | RIOK1 = 0 | RIPK1 = 0 | RIPK2 = 0 | ROR2 = 0 | RPS6KA1 = 0 | SPHK1 = 0 | SRC 0 | STK24 = 0

COc1cc(-c2oc3cc(O)cc(O)c3c(=O)c2O)ccc1O [Isorhamnetin] (10 µM)
inactive: RET 0 | [1] 0 | RIOK1 = 0 | RIPK1 = 0 | RIPK2 = 0 | ROR2 = 0 | RPS6KA1 = 0 | SPHK1 = 0 | SRC 0 | STK24 = 0

CCN1CCN(Cc2cnc(Nc3cc(-c4cc(F)c5nc(C)n(C(C)C)c5c4)c(F)cn3)nc2)CC1 (10 µM)
inactive: RET 0 | [1] 0 | RIOK1 = 0 | RIPK1 = 0 | RIPK2 = 0 | ROR2 = 0 | RPS6KA1 = 0 | SPHK1 = 0 | SRC 0 | STK24 = 0

COc1cc2c(cc1O)C[C@H]1c3cc(O)c(OC)cc3CC[N@@+]1(C)C2 [Phellodendrine] (10 µM)
inactive: RET 0 | [1] 0 | RIOK1 = 0 | RIPK1 = 0 | RIPK2 = 0 | ROR2 = 0 | RPS6KA1 = 0 | SPHK1 = 0 | SRC 0 | STK24 = 0

O=C(O)[C@H]1O[C@@H](Oc2cc3oc(-c4ccc(O)cc4)cc(=O)c3c(O)c2O)[C@H](O)[C@@H](O)[C@@H]1O [Scutellarin] (10 µM)
inactive: RET 0 | [1] 0 | RIOK1 = 0 | RIPK1 = 0 | RIPK2 = 0 | ROR2 = 0 | RPS6KA1 = 0 | SPHK1 = 0 | SRC 0 | STK24 = 0

CC1CN(CC2CCN(Cc3ccccc3)CC2)C(=O)N(c2cccc(C(=N)N)c2)C1 (stereo not given) (10 µM)
inactive: RET 0 | [1] 0 | RIOK1 = 0 | RIPK1 = 0 | RIPK2 = 0 | ROR2 = 0 | RPS6KA1 = 0 | SPHK1 = 0 | SRC 0 | STK24 = 0

N#Cc1ccc(-c2cnc3ccc(-c4ccc(C(=O)N5CCOCC5)cc4)cn23)cc1 (10 µM)
inactive: RET 0 | [1] 0 | RIOK1 = 0 | RIPK1 = 0 | RIPK2 = 0 | ROR2 = 0 | RPS6KA1 = 0 | SPHK1 = 0 | SRC 0 | STK24 = 0

Cc1cccc(COc2cccc(/C=C3\C(=O)NN(c4ccccc4)C3=O)c2)c1 (10 µM)
inactive: RET 0 | [1] 0 | RIOK1 = 0 | RIPK1 = 0 | RIPK2 = 0 | ROR2 = 0 | RPS6KA1 = 0 | SPHK1 = 0 | SRC 0 | STK24 = 0

C=CC(=O)N1CCN(C(=O)CNc2cc(I)c(Cl)cc2O)CC1 [K-Ras(G12C) inhibitor 12] (10 µM)
inactive: RET 0 | [1] 0 | RIOK1 = 0 | RIPK1 = 0 | RIPK2 = 0 | ROR2 = 0 | RPS6KA1 = 0 | SPHK1 = 0 | SRC 0 | STK24 = 0

Not a retest: two of the compounds above.
Cc1cccc(COc2cccc(/C=C3\C(=O)NN(c4ccccc4)C3=O)c2)c1 (10 µM)
inactive: RET 0 | [1] 0 | RIOK1 = 0 | RIPK1 = 0 | RIPK2 = 0 | ROR2 = 0 | RPS6KA1 = 0 | SPHK1 = 0 | SRC 0 | STK24 = 0

C=CC(=O)N1CCN(C(=O)CNc2cc(I)c(Cl)cc2O)CC1 [K-Ras(G12C) inhibitor 12] (10 µM)
inactive: RET 0 | [1] 0 | RIOK1 = 0 | RIPK1 = 0 | RIPK2 = 0 | ROR2 = 0 | RPS6KA1 = 0 | SPHK1 = 0 | SRC 0 | STK24 = 0

The list goes on:

Cc1ccc(NC(=O)Nc2cc(C(F)(F)F)ccc2F)cc1Nc1ccc2c(c1)NC(=O)/C2=C\c1ccc[nH]1 (2.5 µM)
inactive: RET 0 | [1] 0 | RIOK1 = 0 | RIPK1 = 0 | RIPK2 = 0 | ROR2 = 0 | RPS6KA1 = 0 | SPHK1 = 0 | SRC 0 | STK24 = 0

Nc1ncc(-c2ccnc(Nc3ccncc3)n2)c(CC2CC2)n1 (10 µM)
inactive: RET 0 | [1] 0 | RIOK1 = 0 | RIPK1 = 0 | RIPK2 = 0 | ROR2 = 0 | RPS6KA1 = 0 | SPHK1 = 0 | SRC 0 | STK24 = 0

O=c1cc(N2CCOCC2)oc2c(-c3ccc4c(c3)OCCO4)csc12 (2.5 µM)
inactive: RET 0 | [1] 0 | RIOK1 = 0 | RIPK1 = 0 | RIPK2 = 0 | ROR2 = 0 | RPS6KA1 = 0 | SPHK1 = 0 | SRC 0 | STK24 = 0

CO[C@H]1C[C@@H]2CC[C@@H](C)[C@@](O)(O2)C(=O)C(=O)N2CCCC[C@H]2C(=O)O[C@H]([C@H](C)C[C@@H]2CC[C@@H](OC(=O)C(C)(CO)CO)[C@H](OC)C2)CC(=O)[C@H](C)/C=C(\C)[C@@H](O)[C@@H](OC)C(=O)[C@H](C)C[C@H](C)/C=C/C=C/C=C/1C [Temsirolimus] (2.5 µM)
inactive: RET 0 | [1] 0 | RIOK1 = 0 | RIPK1 = 0 | RIPK2 = 0 | ROR2 = 0 | RPS6KA1 = 0 | SPHK1 = 0 | SRC 0 | STK24 = 0

CCN(CC)CCCC(C)Nc1nc(C)cc(Nc2ccc3nc(C)cc(N)c3c2)n1 (stereo not given) (10 µM)
inactive: RET 0 | [1] 0 | RIOK1 = 0 | RIPK1 = 0 | RIPK2 = 0 | ROR2 = 0 | RPS6KA1 = 0 | SPHK1 = 0 | SRC 0 | STK24 = 0

CC(O)(C#Cc1ccc2c(c1)N(c1nc(N)ncc1Cl)CC2)c1nccs1 (stereo not given) (2.5 µM)
inactive: RET 0 | [1] 0 | RIOK1 = 0 | RIPK1 = 0 | RIPK2 = 0 | ROR2 = 0 | RPS6KA1 = 0 | SPHK1 = 0 | SRC 0 | STK24 = 0

Cc1cc(Nc2cc(N3CCN(C)CC3)nc(Nc3ccc([N+](=O)[O-])cc3)n2)n[nH]1 (2.5 µM)
inactive: RET 0 | [1] 0 | RIOK1 = 0 | RIPK1 = 0 | RIPK2 = 0 | ROR2 = 0 | RPS6KA1 = 0 | SPHK1 = 0 | SRC 0 | STK24 = 0

COc1cc(N2CCC(N3CCN(C)CC3)CC2)ccc1Nc1ncc(Cl)c(-c2c[nH]c3ccccc23)n1 (2.5 µM)
inactive: RET 0 | [1] 0 | RIOK1 = 0 | RIPK1 = 0 | RIPK2 = 0 | ROR2 = 0 | RPS6KA1 = 0 | SPHK1 = 0 | SRC 0 | STK24 = 0

From the supplement of paper PMC12823440, “Inhibitors supercharge kinase turnover through native proteolytic circuits” (Nature, 2025)
